Experimental data: patent publication US9796676B2, “Honeybee repellents and uses thereof” (Inscent, Inc., priority 2013, dated 2017)

Test system: OBP2
Test: Fluorescent-quench ligand-protein-binding assay (OBP2 binding)
Set-up: species or system Apis mellifera
Source text: To identify a honeybee repellent disclosed herein, candidate compounds were screened based upon the fact that 2-heptanone is an established repellent of bees. 2-heptanone is thought to mediate its behavioral response through binding to a specific odorant-binding protein called OBP2. Therefore compounds that bind OBP2 have the potential to act as odor “mimics” of 2-heptanone. By utilizing a fluorescent-quench, ligand-protein-binding assay, 30,000 compounds from the […]® library (ChemBridge Corp., San Diego, Calif.), a chemical library, were screened and over 150 candidate compounds were isolated that bind OBP2 (Table 1). Such assays are generally known in the art. See, e.g., Briand, et al., Ligand-Binding Properties and Structural Characterization of a Novel Rat Odorant-Binding Protein Variant, Eur. J. Biochem. 267(10): 3079-3089 (2000); Briand, et al., Ligand Binding and Physico-Chemical Properties of ASP2, A Recombinant Odorant-Binding Protein From Honeybee (Apis mellifera L.), Eur. J. Biochem. 268(3): 752-760 (2001); Briand, et al., Characterization of a Chemosensory Protein (ASP3c) from Honeybee (Apis mellifera L.) as a Brood Pheromone Carrier, Eur. J. Biochem. 269(18): 4586-4596 (2002), each of which is hereby incorporated by reference in its entirety.

For `O=C(CCN1C(=O)c2ccccc2C1=O)N1CCN(C2c3ccccc3-c3ccccc32)CC1` [compound 100], the “OBP2 binding characteristic of compound” value was “Moderate (Moderate, indicates that 50% or less of the compound bound to OBP2.)”.
